Results taken from paper PMC4029847 (Journal of clinical pharmacology, 2013).
Where two headings read alike, the source gives them in different places. Marks after values point to notes of the source that are not given here.

Format: in vivo, human

Cl/F, geometric mean (CV%) (fexofenadine 120 mg oral with 240 ml GFJ): 69.3 ^b (33.5) l/h
Cl/F, geometric mean (CV%) (fexofenadine 120 mg oral with 240 ml water): 52.8 (40.0) l/h
SMILES: CC(C)(C(=O)O)c1ccc(C(O)CCCN2CCC(C(O)(c3ccccc3)c3ccccc3)CC2)cc1 (centres unmarked) [fexofenadine]
